{
  "source": "patent US20220241227A1",
  "about": "“COMPOSITIONS COMPRISING HDAC INHIBITORS AND RETINOIDS” (The Regents of The University of California, priority 2019, published 2022)",
  "key": {"[1]": {"test_system": "RARβ", "assay": "RARβ mRNA and protein levels in HCT116 cells", "assay_type": "cell-based", "details": "48 hrs, RA 10 μM, butyrate 5 mM, SAHA 5 μM"}, "[2]": {"test_system": "miR-22", "assay": "miR-22 induction in HCT116 cells", "assay_type": "cell-based", "details": "RA 10 μM, SAHA 5 μM, butyrate 5 mM, propionate 10 mM, valerate 10 mM"}, "[3]": {"test_system": "miR-22", "details": "published data, cells not given; cited from earlier work"}},
  "note": "Like-named read-outs stand apart in the source and are kept apart here. At least one compound was matched to its structure with a doubt left.",
  "data": [
    {"compound": "CCCC(=O)O", "note": "[butyrate]", "values": [
      {"measurement": "RARβ expression (mRNA and protein)", "setting": "[1]", "result": "induced the expression"},
      {"measurement": "miR-22 induction", "setting": "[2]", "result": "induced"},
      {"measurement": "miR-22 induction", "setting": "[3]", "result": "induce miR-22"}
    ]}
  ]
}
